Measurements reported in patent US20230287061A1, “NEW ANTIMICROBIAL PEPTIDES” (priority 2020, published 2023).
At least one peptide structure holds a part that was inferred or is arguable (an end, a ring closure or a residue). Some entries share one result that the patent states for a list of compounds. Ends that are not written are not given here.

Columns and labels:
B. thuringiensis = assay: Challenge test in dairy model (agar-ricotta); assay type: cell-based, Bacillus thuringiensis; conditions: peptide concentration 512 μg/ml
Listeria monocytogenes = assay: Challenge test on meat model (agar-salami); assay type: cell-based; conditions: peptide at 32 μg/ml

Sequence: ALLKVLFSWFRKHNSRRKNLPAKN [Seq ID no2]
- levels of B. thuringiensis inhibited (B. thuringiensis): 10^2-10^3 CFU/ml
- L. monocytogenes concentration on which a bactericidal effect is exerted (Listeria monocytogenes): 102 CFU/g
